Literature values in paper PMC9974843 (Journal of medicinal chemistry, 2023).

Conditions: not told

With `CCCc1ccc(-c2ccc(N(C[C@@H](N)[C@@H](C)CC)C(=O)[C@@H]3C[C@H]3c3ccccn3)cc2)cc1` [Compound 2-PCCA, (1R,2R)-2-(pyridin-2-yl)-cyclopropane carboxylic acid [(2S,3S)-2-amino-3-methylpentyl]-(4′-propylbiphenyl-4-yl)amide] as the compound, how does the brain permeability read?
The brain permeability was “poor brain permeability”.
